In the supplement of paper PMC10849652:
This is one part of the list.

By UniProt entry, the sequences of proteins in these tests, tags left out. Where a name states a change or a piece, a line headed by the entry shows the natural chain unless it says otherwise.
UniProt Q9NQC3: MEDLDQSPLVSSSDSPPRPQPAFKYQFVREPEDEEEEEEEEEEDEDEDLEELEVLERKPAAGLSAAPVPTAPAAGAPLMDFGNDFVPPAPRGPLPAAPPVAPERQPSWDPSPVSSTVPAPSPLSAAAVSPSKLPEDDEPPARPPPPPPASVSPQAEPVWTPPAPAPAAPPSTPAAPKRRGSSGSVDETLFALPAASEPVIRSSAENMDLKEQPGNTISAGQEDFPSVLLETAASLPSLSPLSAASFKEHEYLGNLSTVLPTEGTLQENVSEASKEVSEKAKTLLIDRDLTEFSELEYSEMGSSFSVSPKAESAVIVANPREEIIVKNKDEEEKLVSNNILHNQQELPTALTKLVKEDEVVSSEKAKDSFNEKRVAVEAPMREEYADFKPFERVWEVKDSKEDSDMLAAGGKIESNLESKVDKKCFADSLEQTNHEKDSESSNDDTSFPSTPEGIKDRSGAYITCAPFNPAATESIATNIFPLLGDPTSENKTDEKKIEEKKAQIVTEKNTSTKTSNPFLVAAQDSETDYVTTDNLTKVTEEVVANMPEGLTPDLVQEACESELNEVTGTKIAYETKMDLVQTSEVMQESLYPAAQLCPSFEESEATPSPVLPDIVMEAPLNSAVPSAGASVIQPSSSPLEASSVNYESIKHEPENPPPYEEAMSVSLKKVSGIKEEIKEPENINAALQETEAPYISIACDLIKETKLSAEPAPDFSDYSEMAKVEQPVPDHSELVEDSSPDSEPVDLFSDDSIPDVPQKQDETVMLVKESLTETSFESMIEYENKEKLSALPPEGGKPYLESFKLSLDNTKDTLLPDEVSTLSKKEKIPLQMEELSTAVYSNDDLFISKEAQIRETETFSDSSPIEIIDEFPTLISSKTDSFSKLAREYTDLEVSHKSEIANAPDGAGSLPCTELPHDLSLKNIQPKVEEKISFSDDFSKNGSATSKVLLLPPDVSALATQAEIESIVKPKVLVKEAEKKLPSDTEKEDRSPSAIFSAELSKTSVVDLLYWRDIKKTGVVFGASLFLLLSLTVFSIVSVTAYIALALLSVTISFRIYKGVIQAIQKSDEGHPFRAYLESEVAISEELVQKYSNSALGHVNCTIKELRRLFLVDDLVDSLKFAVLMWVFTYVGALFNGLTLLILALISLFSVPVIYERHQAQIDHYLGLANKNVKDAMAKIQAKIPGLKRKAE
UniProt P62070: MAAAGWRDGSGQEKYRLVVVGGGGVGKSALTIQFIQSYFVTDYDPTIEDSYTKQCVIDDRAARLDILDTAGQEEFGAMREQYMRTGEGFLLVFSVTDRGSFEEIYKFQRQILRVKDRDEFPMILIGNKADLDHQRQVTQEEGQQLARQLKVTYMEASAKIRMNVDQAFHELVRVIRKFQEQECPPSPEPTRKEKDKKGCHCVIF
UniProt Q7L099: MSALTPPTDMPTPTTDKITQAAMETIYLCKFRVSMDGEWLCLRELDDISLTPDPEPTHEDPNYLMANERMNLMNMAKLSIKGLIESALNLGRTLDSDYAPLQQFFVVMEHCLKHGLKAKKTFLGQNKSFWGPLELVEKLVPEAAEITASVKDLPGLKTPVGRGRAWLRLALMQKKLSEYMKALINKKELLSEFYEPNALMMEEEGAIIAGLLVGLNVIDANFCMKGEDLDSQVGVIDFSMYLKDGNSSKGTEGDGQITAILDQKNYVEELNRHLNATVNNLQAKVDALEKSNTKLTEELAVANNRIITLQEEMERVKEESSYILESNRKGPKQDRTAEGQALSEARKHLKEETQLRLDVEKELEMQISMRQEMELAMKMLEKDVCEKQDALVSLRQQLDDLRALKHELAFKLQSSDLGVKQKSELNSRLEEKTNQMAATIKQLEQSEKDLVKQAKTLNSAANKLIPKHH
UniProt O43818: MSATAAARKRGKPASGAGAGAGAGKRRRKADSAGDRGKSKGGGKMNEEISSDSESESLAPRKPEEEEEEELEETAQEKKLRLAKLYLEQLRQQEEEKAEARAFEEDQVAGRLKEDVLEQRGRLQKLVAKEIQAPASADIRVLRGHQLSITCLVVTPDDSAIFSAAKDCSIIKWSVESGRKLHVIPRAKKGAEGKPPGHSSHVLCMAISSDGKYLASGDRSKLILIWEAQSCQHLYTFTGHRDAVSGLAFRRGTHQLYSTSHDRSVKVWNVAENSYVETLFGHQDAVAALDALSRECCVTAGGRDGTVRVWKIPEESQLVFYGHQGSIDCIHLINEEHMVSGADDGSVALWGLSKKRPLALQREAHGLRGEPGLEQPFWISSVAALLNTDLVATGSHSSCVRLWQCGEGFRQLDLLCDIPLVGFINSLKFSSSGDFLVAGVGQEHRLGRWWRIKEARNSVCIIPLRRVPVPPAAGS
UniProt P26447: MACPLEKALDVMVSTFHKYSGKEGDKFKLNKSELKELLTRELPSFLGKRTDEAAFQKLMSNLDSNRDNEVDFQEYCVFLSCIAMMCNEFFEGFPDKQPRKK
UniProt P78346: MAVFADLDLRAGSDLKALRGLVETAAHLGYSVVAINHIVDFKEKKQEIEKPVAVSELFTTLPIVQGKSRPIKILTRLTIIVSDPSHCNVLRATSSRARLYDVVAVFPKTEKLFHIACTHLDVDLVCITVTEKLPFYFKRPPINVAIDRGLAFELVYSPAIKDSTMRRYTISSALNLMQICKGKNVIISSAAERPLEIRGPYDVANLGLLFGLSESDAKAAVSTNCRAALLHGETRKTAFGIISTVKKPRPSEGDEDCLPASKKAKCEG
UniProt P51812, whole entry, looked up: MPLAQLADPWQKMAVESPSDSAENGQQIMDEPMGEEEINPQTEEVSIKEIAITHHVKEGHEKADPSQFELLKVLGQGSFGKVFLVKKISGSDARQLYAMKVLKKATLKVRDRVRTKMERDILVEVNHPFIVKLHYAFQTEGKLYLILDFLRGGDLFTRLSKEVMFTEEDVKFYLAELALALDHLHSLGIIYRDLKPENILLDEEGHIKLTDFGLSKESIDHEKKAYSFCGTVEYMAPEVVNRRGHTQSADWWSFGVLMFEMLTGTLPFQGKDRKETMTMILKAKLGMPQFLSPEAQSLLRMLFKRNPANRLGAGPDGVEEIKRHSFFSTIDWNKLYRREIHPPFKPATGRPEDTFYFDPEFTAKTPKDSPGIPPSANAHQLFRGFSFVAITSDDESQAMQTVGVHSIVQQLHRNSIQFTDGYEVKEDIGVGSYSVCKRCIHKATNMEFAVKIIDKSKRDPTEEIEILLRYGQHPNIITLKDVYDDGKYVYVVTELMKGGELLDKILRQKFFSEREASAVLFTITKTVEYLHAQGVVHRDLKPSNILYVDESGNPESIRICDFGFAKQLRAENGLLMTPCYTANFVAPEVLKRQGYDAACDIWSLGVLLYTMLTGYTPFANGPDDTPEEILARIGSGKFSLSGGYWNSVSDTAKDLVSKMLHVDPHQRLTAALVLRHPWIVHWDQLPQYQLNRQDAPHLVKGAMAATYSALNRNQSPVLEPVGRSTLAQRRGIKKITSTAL
UniProt Q9Y3I0: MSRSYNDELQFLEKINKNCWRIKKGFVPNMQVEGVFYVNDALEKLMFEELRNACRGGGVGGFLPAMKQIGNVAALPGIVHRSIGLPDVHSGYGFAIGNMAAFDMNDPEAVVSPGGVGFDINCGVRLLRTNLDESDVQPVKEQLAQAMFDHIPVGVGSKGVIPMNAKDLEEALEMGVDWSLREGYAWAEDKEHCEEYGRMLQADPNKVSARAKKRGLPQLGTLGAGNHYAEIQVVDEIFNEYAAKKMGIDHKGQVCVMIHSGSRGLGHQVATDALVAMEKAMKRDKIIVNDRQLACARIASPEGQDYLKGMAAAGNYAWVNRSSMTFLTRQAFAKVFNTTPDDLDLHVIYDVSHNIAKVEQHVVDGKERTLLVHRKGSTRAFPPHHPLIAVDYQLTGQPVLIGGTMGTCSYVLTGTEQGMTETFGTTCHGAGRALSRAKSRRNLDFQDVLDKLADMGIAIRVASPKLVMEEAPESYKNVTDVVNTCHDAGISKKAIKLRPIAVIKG
UniProt Q8N488: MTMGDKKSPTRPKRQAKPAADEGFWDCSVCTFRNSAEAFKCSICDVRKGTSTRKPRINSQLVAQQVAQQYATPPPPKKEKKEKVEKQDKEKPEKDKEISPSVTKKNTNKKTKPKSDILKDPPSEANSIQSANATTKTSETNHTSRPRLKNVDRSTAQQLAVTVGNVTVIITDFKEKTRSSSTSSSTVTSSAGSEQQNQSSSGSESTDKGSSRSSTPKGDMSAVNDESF
UniProt Q9BUL9: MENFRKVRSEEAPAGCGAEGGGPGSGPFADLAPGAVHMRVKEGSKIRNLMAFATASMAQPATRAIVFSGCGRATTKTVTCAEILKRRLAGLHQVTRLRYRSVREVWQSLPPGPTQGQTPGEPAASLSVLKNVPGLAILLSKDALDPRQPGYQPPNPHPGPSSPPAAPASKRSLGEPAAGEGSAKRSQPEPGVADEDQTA
UniProt Q9Y224: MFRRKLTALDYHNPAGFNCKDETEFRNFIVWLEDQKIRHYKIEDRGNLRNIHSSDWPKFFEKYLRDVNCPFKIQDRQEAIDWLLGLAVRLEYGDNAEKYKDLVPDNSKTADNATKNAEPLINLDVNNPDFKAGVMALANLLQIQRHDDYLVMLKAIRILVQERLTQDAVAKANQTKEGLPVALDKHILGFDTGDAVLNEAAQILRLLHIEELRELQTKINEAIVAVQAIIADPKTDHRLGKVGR
UniProt P31350, whole entry, looked up: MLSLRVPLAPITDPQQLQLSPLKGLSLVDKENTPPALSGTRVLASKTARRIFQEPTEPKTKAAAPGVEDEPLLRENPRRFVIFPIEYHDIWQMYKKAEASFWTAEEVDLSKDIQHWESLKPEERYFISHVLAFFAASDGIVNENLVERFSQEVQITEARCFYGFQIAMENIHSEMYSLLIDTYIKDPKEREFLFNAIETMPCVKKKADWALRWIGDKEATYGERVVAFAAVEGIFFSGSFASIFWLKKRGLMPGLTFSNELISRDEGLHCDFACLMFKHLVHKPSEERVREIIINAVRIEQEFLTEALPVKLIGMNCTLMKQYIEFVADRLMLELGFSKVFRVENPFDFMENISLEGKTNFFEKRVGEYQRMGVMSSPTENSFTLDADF
UniProt Q9BY42: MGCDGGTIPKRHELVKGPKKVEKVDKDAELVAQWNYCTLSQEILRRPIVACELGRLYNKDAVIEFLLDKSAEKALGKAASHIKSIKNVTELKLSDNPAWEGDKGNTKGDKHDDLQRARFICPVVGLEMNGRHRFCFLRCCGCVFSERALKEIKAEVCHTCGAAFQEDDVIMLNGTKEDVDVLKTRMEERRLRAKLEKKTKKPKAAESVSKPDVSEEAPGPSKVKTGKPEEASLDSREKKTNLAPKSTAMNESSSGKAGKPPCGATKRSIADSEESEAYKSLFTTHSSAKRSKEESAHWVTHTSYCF
UniProt P05387, whole entry, looked up: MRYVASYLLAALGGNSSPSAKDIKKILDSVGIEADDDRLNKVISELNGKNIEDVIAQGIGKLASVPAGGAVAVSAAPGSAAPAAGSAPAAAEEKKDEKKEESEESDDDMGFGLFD
UniProt P23443: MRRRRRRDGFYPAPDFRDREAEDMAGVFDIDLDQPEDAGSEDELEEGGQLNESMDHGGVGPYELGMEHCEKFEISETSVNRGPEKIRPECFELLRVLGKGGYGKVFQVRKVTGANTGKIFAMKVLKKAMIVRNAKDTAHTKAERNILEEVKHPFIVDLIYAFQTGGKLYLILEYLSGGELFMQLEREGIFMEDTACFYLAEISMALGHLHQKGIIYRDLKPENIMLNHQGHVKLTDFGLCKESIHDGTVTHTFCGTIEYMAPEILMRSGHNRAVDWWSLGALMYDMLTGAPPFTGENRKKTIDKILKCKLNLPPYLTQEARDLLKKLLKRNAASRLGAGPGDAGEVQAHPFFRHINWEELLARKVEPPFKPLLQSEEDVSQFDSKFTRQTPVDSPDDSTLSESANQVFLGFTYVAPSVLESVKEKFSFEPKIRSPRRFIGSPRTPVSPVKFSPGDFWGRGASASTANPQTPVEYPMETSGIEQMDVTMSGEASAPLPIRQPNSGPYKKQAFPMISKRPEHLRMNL
UniProt P04844: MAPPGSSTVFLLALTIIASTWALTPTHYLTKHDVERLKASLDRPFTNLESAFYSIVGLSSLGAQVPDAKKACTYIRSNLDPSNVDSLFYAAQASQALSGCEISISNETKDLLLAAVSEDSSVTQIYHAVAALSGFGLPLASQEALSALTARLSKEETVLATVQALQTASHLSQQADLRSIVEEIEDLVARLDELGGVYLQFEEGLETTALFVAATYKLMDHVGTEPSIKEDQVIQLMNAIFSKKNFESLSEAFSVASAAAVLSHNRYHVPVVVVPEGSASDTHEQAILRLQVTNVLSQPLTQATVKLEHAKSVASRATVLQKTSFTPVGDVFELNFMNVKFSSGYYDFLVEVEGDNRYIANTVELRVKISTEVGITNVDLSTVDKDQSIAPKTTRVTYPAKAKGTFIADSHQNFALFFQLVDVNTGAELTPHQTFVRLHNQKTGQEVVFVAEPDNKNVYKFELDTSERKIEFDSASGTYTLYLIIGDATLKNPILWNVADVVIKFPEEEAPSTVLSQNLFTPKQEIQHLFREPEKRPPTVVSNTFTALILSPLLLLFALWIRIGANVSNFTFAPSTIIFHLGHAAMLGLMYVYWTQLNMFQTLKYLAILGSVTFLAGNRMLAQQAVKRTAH

Legend:
Test in all cases: log2 fold change, soluble protein after heating vs DMSO (PISA); higher = thermal stabilisation; K562 lysate, 10 uM; active = over 0.2 and 3.5 SD of the protein, either way, in both replicates (recomputed)
nilotinib = compound: Cc1cn(-c2cc(NC(=O)c3ccc(C)c(Nc4nccc(-c5cccnc5)n4)c3)cc(C(F)(F)F)c2)cn1 [nilotinib]
Procedure, shortened: (§1)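 Dounce homogenisation of K562 pellets in PBS pH 7.4 with 1 mM MgCl2 produced a crude extract, used at 1 mg/mL protein. Exposure to 10 μM compound lasted 30 min, and aliquots were then heated for 3 min across 48°C-58°C, pooled and brought to 0.5% NP-40 at 4°C. The supernatant after 21,000xg for 90 min was quantified by TMTpro 16plex LC-MS/MS with channel sums equalised. Duplicate values are given as log-two fold change in thermal stability relative to solvent controls.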

[1] = compound: Cc1nc(Nc2n[nH]c3c2CN(C(=O)N[C@H](CN(C)C)c2ccccc2)C3(C)C)c2sccc2n1
Procedure, shortened: as §1

dasatinib = compound: Cc1nc(Nc2ncc(C(=O)Nc3c(C)cccc3Cl)s2)cc(N2CCN(CCO)CC2)n1 [dasatinib]
Procedure, shortened: as §1

[2] = compound: Cc1ncc(-c2ccnc(Nc3ccc(S(C)(=O)=O)cc3)n2)n1C(C)C
Procedure, shortened: as §1

[3] = compound: Cn1cc(-c2ccc3c(c2)CCN3C(=O)Cc2cccc(C(F)(F)F)c2)c2c(N)ncnc21
Procedure, shortened: as §1

quisinostat = compound: Cn1cc(CNCC2CCN(c3ncc(C(=O)NO)cn3)CC2)c2ccccc21 [quisinostat]
Procedure, shortened: as §1

tipifarnib = compound: Cn1cncc1[C@@](N)(c1ccc(Cl)cc1)c1ccc2c(c1)c(-c1cccc(Cl)c1)cc(=O)n2C [tipifarnib]
Procedure, shortened: as §1

[4] = compound: NC(=O)Nc1cc(-c2cccc(F)c2)sc1C(=O)N[C@H]1CCCNC1
Procedure, shortened: as §1

[5] = compound: NC(=O)c1cnc(N[C@@H]2CCCC[C@@H]2N)nc1Nc1cccc(-n2nccn2)c1
Procedure, shortened: as §1

[6] = compound: NC1(c2ccc(-c3nc4ccn5c(=O)[nH]nc5c4cc3-c3ccccc3)cc2)CCC1
Procedure, shortened: as §1

Measured: log2 fold change

RTN4 isoform 2 (UniProt Q9NQC3)
inactive: nilotinib 0.017 | [1] -0.069 | dasatinib 0.063 | [2] -0.037 | [3] -0.005 | quisinostat -0.081 | tipifarnib 0.081 | [4] -0.001 | [5] -0.081 | [6] -0.173

RPL4 (UniProt P36578)
inactive: nilotinib 0.051 | [1] -0.029 | dasatinib 0.049 | [2] -0.015 | [3] -0.014 | quisinostat 0.08 | tipifarnib 0.015 | [4] 0.003 | [5] -0.013 | [6] -0.006

RPS3 (UniProt P23396)
inactive: nilotinib -0.006 | [1] -0.001 | dasatinib 0.031 | [2] -0.014 | [3] 0.02 | quisinostat 0.017 | tipifarnib 0.024 | [4] 0 | [5] -0.014 | [6] 0.01

RRAS2 (UniProt P62070)
inactive: nilotinib -0.063 | [1] 0.093 | dasatinib 0.004 | [2] 0.082 | [3] -0.055 | quisinostat 0.001 | tipifarnib 0.009 | [4] 0.013 | [5] 0.02 | [6] -0.048

RUFY3 isoform 3 (UniProt Q7L099)
inactive: nilotinib -0.022 | [1] 0.005 | dasatinib -0.028 | [2] -0.018 | [3] 0.008 | quisinostat 0.029 | tipifarnib 0.017 | [4] -0.008 | [5] 0.022 | [6] -0.02

2 entries drawn at random from the list so far, as already listed:
RPS3 (UniProt P23396)
inactive: nilotinib -0.006 | [1] -0.001 | dasatinib 0.031 | [2] -0.014 | [3] 0.02 | quisinostat 0.017 | tipifarnib 0.024 | [4] 0 | [5] -0.014 | [6] 0.01

RUFY3 isoform 3 (UniProt Q7L099)
inactive: nilotinib -0.022 | [1] 0.005 | dasatinib -0.028 | [2] -0.018 | [3] 0.008 | quisinostat 0.029 | tipifarnib 0.017 | [4] -0.008 | [5] 0.022 | [6] -0.02

(list continues)

RRP9 (UniProt O43818)
inactive: nilotinib 0.059 | [1] -0.016 | dasatinib 0.08 | [2] -0.019 | [3] 0.123 | quisinostat -0.125 | tipifarnib -0.002 | [4] 0.032 | [5] 0.014 | [6] 0.119

S100A4 (UniProt P26447)
inactive: nilotinib 0.071 | [1] 0.081 | dasatinib 0.219 | [2] -0.078 | [3] -0.167 | quisinostat -0.095 | tipifarnib -0.3 | [4] 0.004 | [5] -0.099 | [6] -0.012

RPS13 (UniProt P62277)
inactive: nilotinib -0.021 | [1] -0.024 | dasatinib 0.004 | [2] -0.028 | [3] 0.046 | quisinostat 0.053 | tipifarnib 0.022 | [4] 0.007 | [5] 0.005 | [6] 0.05

RPP30 isoform 2 (UniProt P78346)
inactive: nilotinib -0.015 | [1] 0.013 | dasatinib 0.042 | [2] 0.019 | [3] -0.023 | quisinostat 0.01 | tipifarnib -0.009 | [4] -0.003 | [5] 0.022 | [6] 0.011

RPS4X (UniProt P62701)
inactive: nilotinib 0.01 | [1] -0.023 | dasatinib 0.025 | [2] -0.002 | [3] -0.003 | quisinostat 0.016 | tipifarnib 0.01 | [4] -0.001 | [5] -0.034 | [6] 0.008

RSRC2 (UniProt Q7L4I2)
inactive: nilotinib 0.013 | [1] 0.006 | dasatinib 0.046 | [2] 0.012 | [3] 0 | quisinostat 0.017 | tipifarnib 0.001 | [4] -0.042 | [5] 0.038 | [6] 0.015

RPS6KA3 (UniProt P51812)
inactive: nilotinib -0.02 | [1] 0.17 | dasatinib -0.065 | [2] 0.039 | [3] 0.031 | quisinostat -0.046 | tipifarnib -0.023 | [4] 0.133 | [5] 0.09 | [6] 0.005

RTCB (UniProt Q9Y3I0)
inactive: nilotinib -0.027 | [1] -0.005 | dasatinib -0.009 | [2] -0.029 | [3] 0.011 | quisinostat 0.04 | tipifarnib 0.011 | [4] -0.009 | [5] 0.007 | [6] 0.021

RYBP (UniProt Q8N488)
inactive: nilotinib -0.006 | [1] 0.12 | dasatinib 0.098 | [2] -0.015 | [3] 0.006 | quisinostat -0.095 | tipifarnib -0.004 | [4] -0.027 | [5] 0.011 | [6] -0.113

RSL1D1 (UniProt O76021)
inactive: nilotinib -0.008 | [1] 0.038 | dasatinib 0.023 | [2] -0.018 | [3] -0.004 | quisinostat 0.06 | tipifarnib 0.042 | [4] -0.017 | [5] -0.002 | [6] -0.004

RPS15A (UniProt P62244)
inactive: nilotinib 0.01 | [1] 0.004 | dasatinib 0.042 | [2] -0.03 | [3] -0.003 | quisinostat 0.011 | tipifarnib 0.006 | [4] 0.003 | [5] 0.016 | [6] 0.021

RPS6 (UniProt P62753)
inactive: nilotinib -0.016 | [1] 0.012 | dasatinib -0.036 | [2] -0.017 | [3] -0.015 | quisinostat 0.078 | tipifarnib 0.019 | [4] -0.024 | [5] -0.002 | [6] -0.008

RRAS (UniProt P10301)
inactive: nilotinib -0.007 | [1] -0.006 | dasatinib 0.018 | [2] -0.001 | [3] -0.02 | quisinostat 0.009 | tipifarnib -0.008 | [4] 0.025 | [5] 0.005 | [6] 0

RPP25 (UniProt Q9BUL9)
inactive: nilotinib 0.054 | [1] 0.142 | dasatinib 0.116 | [2] 0 | [3] 0.009 | quisinostat 0.193 | tipifarnib -0.083 | [4] -0.027 | [5] 0.012 | [6] 0.036

RTRAF (UniProt Q9Y224)
inactive: nilotinib -0.019 | [1] 0.061 | dasatinib -0.003 | [2] -0.011 | [3] 0.009 | quisinostat 0.019 | tipifarnib -0.004 | [4] -0.052 | [5] 0 | [6] 0.021

RRM2 isoform 2 (UniProt P31350)
inactive: nilotinib -0.019 | [1] -0.016 | dasatinib 0.045 | [2] 0.011 | [3] 0.009 | quisinostat -0.023 | tipifarnib -0.002 | [4] -0.03 | [5] -0.019 | [6] 0.043

RTF2 (UniProt Q9BY42)
inactive: nilotinib -0.052 | [1] -0.022 | dasatinib -0.027 | [2] 0.003 | [3] 0.043 | quisinostat -0.017 | tipifarnib -0.002 | [4] -0.031 | [5] -0.176 | [6] 0.042

RPLP2 (UniProt P05387)
inactive: nilotinib 0 | [1] 0.035 | dasatinib 0.017 | [2] 0.012 | [3] -0.03 | quisinostat 0.004 | tipifarnib 0.026 | [4] -0.01 | [5] -0.049 | [6] 0.008

RPS6KB1 (UniProt P23443)
inactive: nilotinib -0.034 | [1] 0.077 | dasatinib -0.003 | [2] 0.001 | [3] 0.003 | quisinostat -0.049 | tipifarnib -0.008 | [4] 0.035 | [5] -0.014
active: [6] 0.405

RPL7 (UniProt P18124)
inactive: nilotinib 0.02 | [1] -0.017 | dasatinib 0.009 | [2] 0.005 | [3] -0.028 | quisinostat 0.015 | tipifarnib 0.018 | [4] -0.005 | [5] -0.013 | [6] 0.002

RPL39P5 (UniProt Q59GN2)
inactive: nilotinib -0.053 | [1] 0.011 | dasatinib 0.054 | [2] -0.051 | [3] 0 | quisinostat 0.023 | tipifarnib 0 | [4] 0.032 | [5] -0.026 | [6] -0.01

RPL8 (UniProt P62917)
inactive: nilotinib -0.005 | [1] -0.004 | dasatinib 0.035 | [2] -0.028 | [3] -0.013 | tipifarnib 0.027 | [4] -0.019 | [5] -0.008 | [6] -0.006
active: quisinostat 0.222

RPN2 (UniProt P04844)
inactive: nilotinib -0.011 | [1] 0.005 | dasatinib -0.008 | [2] -0.013 | [3] -0.006 | quisinostat 0.049 | tipifarnib -0.015 | [4] -0.001 | [5] 0.011 | [6] -0.003

RPS23 (UniProt P62266)
inactive: nilotinib 0.005 | [1] -0.027 | dasatinib 0.013 | [2] -0.015 | [3] -0.02 | quisinostat 0.017 | tipifarnib 0.021 | [4] 0.006 | [5] -0.018 | [6] -0.006

RPL9 (UniProt P32969)
inactive: nilotinib -0.001 | [1] 0.014 | dasatinib 0.009 | [2] -0.016 | [3] -0.025 | quisinostat 0.083 | tipifarnib 0.04 | [4] -0.038 | [5] -0.031 | [6] 0.002
